These results are taken from the supplement of paper PMC8866396.

One experiment concerns IL-6-GFP PC-9GR. Kind of experiment: IL-6-GFP fluorescence relative to DMSO control (fraction of control); higher = more IL-6-GFP expression. The settings on record: compound concentration: 10 uM; treatment time: 48 h. As for the experimental part:
(§1)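 IL-6-GFP-overexpressing PC-9 and PC-9GR EGFR-mutant lung cancer cells (3000 cells/well, 96-well) were treated for 48 h with each compound of the Selleck L2000 library at 10 uM. IL-6-GFP fluorescence was read on a high-content screening system, and viability by CCK-8 absorbance on a parallel plate set. Each value was normalised as compound well / DMSO control well; two independent replicates.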

The test system of a further experiment is IL-6-GFP PC-9. The description is as above. Conditions: compound concentration: 10 uM; treatment time: 48 h. As for the experimental part: as §1

± gives the standard deviation of the averaged measurements. The list shows a part of the results. This data set is noisy: repeats of one test often differ as much as different tests do.

For the molecule `COc1cccc2c1C(=O)c1c(O)c3c(c(O)c1C2=O)CC(O)(C(=O)CO)CC3OC1CC(N)C(O)C(C)O1.Cl` (stereo unspecified) [Doxorubicin (Adriamycin) HCl], the values for the IL-6-GFP fluorescence in the experiment on IL-6-GFP PC-9GR and in the experiment on IL-6-GFP PC-9 were 0.813 ± 0.022 and 0.681 ± 0.074, respectively. For `CC(=O)OCC(CCn1cnc2cnc(N)nc21)COC(C)=O` [Famciclovir], the IL-6-GFP fluorescence in the experiment on IL-6-GFP PC-9GR is 0.877 ± 0.12; in the experiment with IL-6-GFP PC-9 it was 0.825 ± 0.17. Consider `O=NN(CCCl)C(=O)NC1CCCCC1` [Lomustine], for which the results for the IL-6-GFP fluorescence with IL-6-GFP PC-9GR and in the experiment on IL-6-GFP PC-9 were 0.683 ± 0.13 and 0.882 ± 0.2, respectively. Take `CNC(=O)c1c(C)oc2cc(Oc3ncnc4cc(OC)c(OC)cc34)ccc12` [Fruquintinib]: the IL-6-GFP fluorescence with IL-6-GFP PC-9GR stood at 0.906 ± 0.13; in the experiment with IL-6-GFP PC-9, 0.822 ± 0.14. For the molecule `COC(=O)CC(O)(CCCC(C)(C)O)C(=O)OC1C(OC)=CC23CCCN2CCc2cc4c(cc2C13)OCO4` (stereo unspecified) [Homoharringtonine], the IL-6-GFP fluorescence with IL-6-GFP PC-9GR worked out at 1.1 ± 0.23; with IL-6-GFP PC-9, 1.01 ± 0.12. In turn, `Cc1c(C(=O)Nc2ccc(N3CC(C)OC(C)C3)nc2)cccc1-c1ccc(OC(F)(F)F)cc1` (stereo unspecified) [Sonidegib (Erismodegib, NVP-LDE225)] gave an IL-6-GFP fluorescence with IL-6-GFP PC-9 of 0.893 ± 0.16. Still for that read-out and setting: in the case of `COc1ccc2c(c1)c(CC(=O)O)c(C)n2C(=O)c1ccc(Cl)cc1` [Indomethacin] it was 1.04 ± 0.36; in that of `CC(=O)OC(C)OC(=O)C(C)c1ccc(-c2ccccc2)c(F)c1` (stereo unspecified) [Flurbiprofen Axetil], 0.693 ± 0.17; in that of `CC(C)Cn1cnc2c(N)nc3ccccc3c21` [Imiquimod], 1.26 ± 0.23.

Turning to `CC1CCN(C(=O)CC#N)CC1N(C)c1ncnc2[nH]ccc12.O=C(O)CC(O)(CC(=O)O)C(=O)O` (stereo unspecified), in the experiment on IL-6-GFP PC-9, the IL-6-GFP fluorescence stood at 0.88 ± 0.18. `O=C([O-])CC(O)(CC(=O)[O-])C(=O)[O-].O=C([O-])CC(O)(CC(=O)[O-])C(=O)[O-].[BiH6+3].[K+].[K+].[K+]` [Gastrodenol] had an IL-6-GFP fluorescence in the experiment with IL-6-GFP PC-9 of 0.798 ± 0.03.
